Patent US12599646B2, “Peptide-containing composition for use for treating neoplastic lesions” (CYTOVATION ASA, priority 2020, dated 2026)
Not every detail of the peptide structures is certain; ends, links or a residue may be inferred. Square brackets hold non-standard residues; d marks the D form. Peptide text beside a SMILES is read from it.

Tests used:
[1] = test system: warts; assay: Wart treatment; set-up: species or system human; details: in vivo
[2] = Non-specific binding of CyPep-1 to glass and plastic; assay type: physicochemical
[3] = test system: Gram-positive and Gram-negative bacteria; details: medically-relevant species of Gram-positive and Gram-negative bacteria; see WO 2011/092347; cited from earlier work
[4] = test system: cancer; details: in combination with a checkpoint inhibitor; PCT/EP2019/066295; cited from earlier work

CC[C@@H](C)[C@@H](NC(=O)[C@@H](C)NC(=O)[C@@H](CCCCN)NC(=O)[C@@H](C)NC(=O)[C@H](NC(=O)[C@@H](CCCNC(=N)N)NC(=O)[C@@H](CC(C)C)NC(=O)[C@H](NC(=O)[C@@H](CCCCN)NC(=O)CNC(=O)[C@@H](CCCNC(=N)N)NC(=O)[C@@H](CCCNC(=N)N)NC(=O)[C@@H](CCCNC(=N)N)NC(=O)[C@@H](CCC(N)=O)NC(=O)[C@@H](CCCNC(=N)N)NC(=O)[C@@H](CCCNC(=N)N)NC(=O)[C@@H](CCCCN)NC(=O)[C@@H](CCCCN)NC(=O)[C@@H](CCCNC(=N)N)NC(=O)CNC(=O)[C@H](N)Cc1ccc(O)cc1)[C@H](C)O)C(C)C)C(=O)N[C@H](Cc1ccc(O)cc1)C(=O)N[C@H](CCCCN)C(=O)N[C@H](CCCNC(=N)N)C(=O)N[C@H](Cc1ccc(O)cc1)C(=O)N[C@@H](C(=O)N[C@H](CCC(=O)O)C(=O)O)[C@H](C)CC [CyPep-1] (H-[dY]G[dR][dK][dK][dR][dR][dQ][dR][dR][dR]G[dK][dT][dL][dR][dV][dA][dK][dA][dI][dY][dK][dR][dY][dI][dE]-OH; N-terminus and C-terminus assumed)
efficacy in treatment of warts [1]: particularly effective | non-specific binding to glass and plastic [2]: minimal non-specific binding | bacteriocidal effect [3]: potent bacteriocidal effect | efficacy in treating cancer [4]: highly effective
